Results from PubChem BioAssay AID488966 (Southern Research Specialized Biocontainment Screening …, 2010).
The whole screen tested about 340,000 compounds, of which about 55 (0.02%) were called active. This list was built around the results that the source calls inconclusive (neither active nor inactive); the mix of calls is not that of the screen.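 How the source made its calls: active means phage lysis inhibition, versus mean bacterial control, above a set limit; inconclusive means no clear call, values can overlap the other calls; inactive means the rest.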

Assay: protection from phage-mediated lysis, alamar blue read-out – E. coli UTI89, K1F phage, bacterial capsule biogenesis inhibitors (AID 488966);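 further: capsule biogenesis inhibitors block K1F phage lysis so surviving cells raise fluorescence; higher fluorescence means more inhibition of phage lysis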
Conditions: 2 h; inhibition: at 100 µM, stronger effect = higher value unless noted; series mostly up to 300 µM

Row | SMILES | inhibition
1 | Cc1ccc(C(C)(C)C)cc1S(=O)(=O)Nc1cccc(C(=O)N2CCN(c3ccccn3)CC2)c1 | inactive: -1.06% [at 50 µM, stronger effect = higher value]
2 | O=S(=O)(NCCCN1CCN(c2ccccc2F)CC1)c1cccc2cccnc12 | inconclusive: 19%
3 | c1ccc([C@H]2CNCCN2CCc2cccc3ccccc23)cc1 | inconclusive: 17.8%
4 | CC(C)(C)C(=O)OCc1nc(-c2ccc(Cl)cc2)cs1 | inconclusive: 18.2%
5 | O=C(NN=Cc1ccccc1O)C(O)(c1ccccc1)c1ccccc1 | inactive: -1.49%
6 | O=C(CSc1nc2c(cnn2-c2ccc(F)cc2)c(=O)[nH]1)Nc1nccs1 | inconclusive: 16.7%
7 | COc1ccc(CNC(=O)CN2C(=O)CSc3ccc(S(=O)(=O)N4CCCCC4)cc32)cc1 | inactive: 0.13%
8 | Cc1ccc(C)c(OCCC(=O)OCC(=O)NC(=O)NC2CCCCC2)c1 | inconclusive: 109%
9 | Nc1nonc1C(=O)NCCNCc1c(OCc2ccccc2F)ccc2ccccc12 | inconclusive: 16.9%
10 | Cc1cc(OC(C)C)nc(NCc2ccccc2)n1 | inconclusive: 0.095% [at 50 µM, stronger effect = higher value]
11 | COc1ccc(C(=O)NNC(=O)CCc2nc3ccccc3c(=O)[nH]2)cc1 | inactive: -0.85%
12 | COc1ccc(S(=O)(=O)N2Cc3ccccc3CC2C(=O)Nc2ccc3c(c2)OCO3)cc1 (stereo unspecified) | inconclusive: 18%
13 | C[C@H](CO)N1C[C@H](C)[C@@H](CN(C)Cc2ccc(C(=O)O)cc2)Oc2c(NS(=O)(=O)c3ccccc3)cccc2C1=O | inactive: 0.71%
14 | CCCOc1ccccc1NC(=O)c1c(-c2ccccc2)noc1C | inconclusive: 20.2%
15 | CCCn1nc(-c2nnc(-c3ccc(C)c(C)c3)o2)c2ccccc2c1=O | inactive: 0.05%
16 | COc1cccc(C(=O)Nc2ncc3c(n2)CC(C)CC3=O)c1 (stereo unspecified) | inactive: 0.02%
17 | O=C(NCc1cccnc1)C1CCN(S(=O)(=O)c2cccs2)CC1 | inconclusive: 17.1%
18 | CCOc1ccc(C(=O)C2CCN(C(=O)c3ccccc3C(=O)O)CC2)cc1 | inconclusive: 17.2%
19 | CC(C)C(NC(=O)c1ccccc1F)C(=O)OCC(=O)c1ccc(F)cc1 (stereo unspecified) | inactive: -0.86%
20 | CCN(CC)CC#CCC(C)(c1ccccc1)c1ccccc1 | inconclusive: 19.1%
21 | CC(=O)c1ccc(C(C)(C)c2ccc(C(C)=O)s2)s1 | inactive: 1.04%

Sorted by length of the SMILES (smallest number first): some entries from above
Row | SMILES | inhibition
14 | CCCOc1ccccc1NC(=O)c1c(-c2ccccc2)noc1C | inconclusive: 20.2%
5 | O=C(NN=Cc1ccccc1O)C(O)(c1ccccc1)c1ccccc1 | inactive: -1.49%
19 | CC(C)C(NC(=O)c1ccccc1F)C(=O)OCC(=O)c1ccc(F)cc1 (stereo unspecified) | inactive: -0.86%

(listing goes on)

Row | SMILES | inhibition
22 | Cc1ccc(N2C(=O)C3C4CCC(O4)C3C2=O)c(OC(F)F)c1 (stereo unspecified) | inactive: 2% [at 50 µM, stronger effect = higher value]
23 | CC(C)C[C@@H]1CN=C(N)N1C[C@@H]1CCCN1C[C@H](C)N1C[C@@H](Cc2ccccc2)N(CCc2ccc(Cl)c(Cl)c2)C1=N | inconclusive: 23.9%
24 | CC(NCCN(C)C)C1CCC2C3CCc4cc(O)ccc4C3CCC12C (stereo unspecified) | inconclusive: 18.5%
25 | NS(=O)(=O)c1ccc(CNC(=S)Nc2cc(S(=O)(=O)N3CCOCC3)ccc2Cl)cc1 | inconclusive: 16.3%
26 | CCn1ncc(C2=NOC(C(=O)Nc3cccc(C(C)=O)c3)C2)c1C (stereo unspecified) | inactive: 4.79%
27 | O=C(Nc1ccncc1)Nc1cccc(F)c1 | inactive: 0.13%
28 | O=C(O)CCCC(=O)Nc1cccc(C(=O)Nc2ccccc2C(=O)O)c1 | inactive: 1.41%
29 | CC(=O)OCC(=O)[C@@]1(O)CC[C@H]2[C@@H]3CCC4=CC(=O)CC[C@]4(C)[C@H]3[C@@H](O)C[C@@]21C | inconclusive: 17%
30 | Cc1cc(C(=O)OCC(=O)N2CC(=O)Nc3ccccc32)c(C)n1-c1ccccc1 | inconclusive: 15.3%
31 | CCS(=O)(=O)N1CCC(NC(C)=O)(c2ccccc2)CC1 | inconclusive: 15.9%
32 | COc1ccc(C(CNC(=O)c2cncc(Br)c2)N(C)C)cc1 (stereo unspecified) | inactive: -0.11%
33 | COc1ccc2[nH]c3c(C)c4cc[n+](C)cc4c(C)c3c2c1 | inconclusive: 94.5%
34 | O=C(C1CCCO1)N1CCN(S(=O)(=O)c2ccc(F)cc2)CC1 (stereo unspecified) | inactive: -0.11% [at 50 µM, stronger effect = higher value]
35 | CCN(CC)S(=O)(=O)c1ccc(C)c(NC(=S)NNC(=O)C2CC2)c1 | inconclusive: 15.2%
36 | CCc1cc2cc(C)cc(C)c2nc1SCC(=O)Nc1cc(C)on1 | inactive: 0.23%
37 | O=C(O)c1ccc(N/N=C/C=C/c2ccc([N+](=O)[O-])o2)cc1 | inconclusive: 25.1%
38 | CC(=O)Oc1cc2c(cc1Cl)C1(CC(c3ccccc3Cl)O2)CC(C)(C)NC(=S)N1 (stereo unspecified) | inconclusive: 45.3%
39 | CN(C)CCCN1c2ccccc2Sc2ccc(C(F)(F)F)cc21 | inconclusive: 15.6%
40 | Cc1ccc(C2=NS(=O)(=O)N(C)C(C(=O)NC3CCCC3)=C2)cc1 | inconclusive: 19.6%
41 | O=C1NC(=O)C2(Br)Nc3ccc(Br)cc3C(=O)C2N1 (stereo unspecified) | inconclusive: 19.5%
